In the supplement of paper PMC7411640:
The other results are listed elsewhere or left out. Repeats in this data set agree poorly, so a single value says little.

System: MDA-MB-468
Assay: phospho-S6 immunofluorescence (DAPI-normalised), per-plate z-score; higher = higher phospho-S6 signal (less pathway suppression)
Conditions: 24 h
Procedure: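 GPCR-targeted compound library (MedChemExpress HY-L006) tested on MDA-MB-468 PTEN-null TNBC cells in 384-well plates at 0.1, 1 or 10 uM, combined with vehicle, GDC0941 450 nM or lapatinib 1 uM, for 24 h. Phospho-S6 (S240/244) immunofluorescence normalised to DAPI and expressed as a per-plate z-score; values are the mean of biological triplicates.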

[1] = compound 0.1 µM, co-treatment: GDC0941 450 nM
[2] = compound 0.1 µM, co-treatment: lapatinib 1 uM
[3] = compound 0.1 µM, co-treatment: vehicle
[4] = compound 1 µM, co-treatment: GDC0941 450 nM
[5] = compound 1 µM, co-treatment: lapatinib 1 uM
[6] = compound 1 µM, co-treatment: vehicle
[7] = compound 10 µM, co-treatment: GDC0941 450 nM
[8] = compound 10 µM, co-treatment: lapatinib 1 uM
[9] = compound 10 µM, co-treatment: vehicle

SMILES | phospho-S6 immunofluorescence (z-score) [1] | phospho-S6 immunofluorescence (z-score) [2] | phospho-S6 immunofluorescence (z-score) [3] | phospho-S6 immunofluorescence (z-score) [4] | phospho-S6 immunofluorescence (z-score) [5] | phospho-S6 immunofluorescence (z-score) [6] | phospho-S6 immunofluorescence (z-score) [7] | phospho-S6 immunofluorescence (z-score) [8] | phospho-S6 immunofluorescence (z-score) [9]
CC(C)N(CCCCOCC(=O)O)c1cnc(-c2ccccc2)c(-c2ccccc2)n1 | -0.25 | 0.88 | -0.13 | 0.08 | 0.81 | 0.29 | 1.34 | 1.89 | 0.56
COc1ccc2cc(OCC3(C(=O)O)CN(C(=O)c4ccc(F)cc4)C3)ccc2c1 | -0.58 | -0.5 | 0.01 | 0.05 | -1.11 | 0.18 | -1.13 | 0.61 | 0.47
C[N+]1(C)[C@@H]2CC[C@H]1C[C@@H](OC(=O)C(O)c1ccccc1)C2 (stereo partly specified) [Homatropine (methylbromide)] | 1.41 | 0.56 | 0.95 | 1.34 | 0.59 | 0.35 | 0.87 | 1.2 | 1.2
Cc1ccccc1C(=O)Nc1ccc(C(=O)N2CCCC(N(C)C)c3ccccc32)cc1 (stereo unspecified) [Mozavaptan] | -0.03 | -0.37 | 0.52 | 0.33 | -0.64 | -0.55 | -0.25 | -0.18 | -0.16
